Measured values as given in PubChem BioAssay AID1347076 (National Center for Advancing Translational Sciences (NCATS), 2019).
Hit rate of the full screen: of about 400,000 compounds, about 13,000 (3.2%) were called active. The shares of active, inactive and inconclusive entries below differ from those in the screen. Calls follow the shape of the dose curve; as a rule, active = well fitted cell-killing curve with a large enough effect; inconclusive = small, poorly fitted or top-dose-only effect, or effect the other way; inactive = flat fitted curve, though single readings scatter. Where the call is inconclusive, the potency comes from a doubtful curve fit.

assay: qHTS assay for MDR1-selective chemotherapeutics: Primary screen using the drug-selected MDR subline cells KB-V1; conditions: KB-V1 MDR cells viability, CellTiter-Glo, 72 h; series mostly up to 46.1 µM; also: nearly all actives have a fitted effect of over 60% in size
Procedure, shortened: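 Compound-treated KB-V1 multidrug-resistant cells, 72 h, 37 degrees C; viability by CellTiter-Glo. Fitted qHTS curves give the values.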
Potency is read from the fitted curve at half-maximal effect.

SMILES	Potency
COc1cc2[nH]c3c(N4CCN(c5ccccn5)CC4)ncnc3c2cc1OC	inconclusive: 23.1 µM [cytotoxic, single point]
Cc1ccc(-n2c(-c3ccccc3)nsc2=NC#N)cc1	inactive
COc1ccc(N2C(=O)CSC23C(=O)N(Cc2ccc(C)cc2)c2ccccc23)cc1Cl (stereo not given)	active: 18.4 µM
COc1ccc(-c2nc3c4ccccc4ccn3c2CN2CCOCC2)cc1OC	active: 16.4 µM
COc1cc(-c2noc(CCCC(=O)NCc3ccccc3)n2)cc(OC)c1OC	active: 6.51 µM
O=C(CCc1ccccc1)Nc1nncs1	inactive
CCn1c(=O)c2cc(C(=O)N(C)c3cc(C)ccc3OC)sc2c2ccccc21	active: 23.1 µM
CSc1nc2ccccc2n1Cc1c(Cl)cccc1Cl	inconclusive: 20.6 µM [cytotoxic, single point]
COc1ccc(S(=O)(=O)N2CCN(c3ccc(F)cc3)CC2)cc1C(=O)N1CCCC1	inconclusive: 9.2 µM [cytotoxic, partial curve, poor fit]
CSc1ccccc1NC(=O)c1noc2c1CCC2	inconclusive: 29.1 µM [cytotoxic, single point]
O=C(NCCCN1CCCC1=O)c1cc2nc(-c3ccco3)cc(C(F)(F)F)n2n1	inconclusive: 2.59 µM [cytotoxic, full curve, poor fit]
O=C(CNC1CCCCCC1)c1cccs1	inconclusive: 25.9 µM [rising, single point]
CC(C)Cc1nc(N2CCN(C(=O)c3ccco3)CC2)c(C#N)c2c1CCC2	inconclusive: 25.9 µM [cytotoxic, partial curve, poor fit]
O=C(Nc1ccc(Cl)c(Cl)c1)Nc1cc(S(=O)(=O)N2CCOCC2)ccc1N1CCCC1	inactive
COc1cc(SC)ccc1C(=O)NCCc1c[nH]c2ccccc12	inconclusive: 13 µM [cytotoxic, partial curve]
Cn1cc([N+](=O)[O-])cc1-c1nc2ccccc2n1C	inconclusive: 29.1 µM [cytotoxic, single point]
CCC(CC)C(=O)Nc1nnc(SCC(=O)NC2CCCCC2)s1	inconclusive: 6.51 µM [cytotoxic, partial curve]
CCOc1ccccc1CNC(=O)c1nn(CC)cc1[N+](=O)[O-]	inconclusive: 16.4 µM [cytotoxic, partial curve, poor fit]
COc1ccc(S(=O)(=O)Nc2ccc(NC(C)=O)cc2)cc1Br	inactive
CCc1cccc(CC)c1NC(=S)NCc1nc2ccccc2[nH]1	inconclusive: 14.6 µM [cytotoxic, single point]

A different layout for part of the listing above:
SMILES | Potency
COc1cc2[nH]c3c(N4CCN(c5ccccn5)CC4)ncnc3c2cc1OC | inconclusive: 23.1 µM [cytotoxic, single point]
CC(C)Cc1nc(N2CCN(C(=O)c3ccco3)CC2)c(C#N)c2c1CCC2 | inconclusive: 25.9 µM [cytotoxic, partial curve, poor fit]
